Measured data: PubChem BioAssay AID504774 (Drosophila RNAi Screening Center, 2011)

Aim: 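Knock-downs that shift viability of MMS-exposed cells relative to untreated ones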 (primary screen)
Cells: Drosophila Kc167 cells
Reagent: long dsRNA against Drosophila genes, about 0.25 µg dsRNA per well
Timing: about 6 days: 3 days knock-down, then 3 days with or without MMS
Challenge: methyl methanesulphonate 0.004% (w/v) for 3 days after knock-down
Measurement: 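ATP-dependent luminescence as a measure of live cells in MMS-exposed wells, quantile normalised within each plate, with replicate values also given as a mean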
Direction: mean viability with MMS: higher = more surviving cells after MMS
In all, the deposit lists about 23,000 reagents; this is a random part of those with a known target gene and a result. 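Values are quantile-normalised luminescence on an arbitrary scale; higher means more cells surviving MMS.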 Reagents against one gene are numbered here. Further read-outs or replicates are left out here.

With knock-down of Pym #1, the record shows mean viability with MMS 2.70e6.
After knock-down of Pym #2, the record shows mean viability with MMS 3.33e6.
Knock-down of Tektin-A came out at: mean viability with MMS 3.62e6.
With knock-down of CG14331, the record shows mean viability with MMS 3.66e6.
Against CG13339 the deposit lists mean viability with MMS 3.66e6.
Against CG30016, the entry reads mean viability with MMS 3.54e6.
After knock-down of Hs2st, the screen gave mean viability with MMS 3.70e6.
With knock-down of s-cup #1, the record shows mean viability with MMS 3.50e6.
s-cup #2 scored mean viability with MMS 3.47e6.
Against CG6216, the entry reads mean viability with MMS 3.63e6.
Silencing of CG31313 resulted in: mean viability with MMS 3.50e6.

Sorted by “mean viability with MMS” (highest first): some entries from above
CG14331 | mean viability with MMS: 3.66e6
Tektin-A | mean viability with MMS: 3.62e6
Pym #2 | mean viability with MMS: 3.33e6

More reagents:
Arl2 showed mean viability with MMS 3.47e6.
After knock-down of CG8249, the record shows mean viability with MMS 3.55e6.
Against CG17819, the entry reads mean viability with MMS 3.61e6.
Silencing of Ir7a gave: mean viability with MMS 3.43e6.
RYa-R scored mean viability with MMS 3.75e6.
Knock-down of Rx #1 gave: mean viability with MMS 3.54e6.
Silencing of Rx #2 resulted in: mean viability with MMS 3.49e6.
KCNQ #1 scored mean viability with MMS 3.60e6.
After knock-down of KCNQ #2 the results were mean viability with MMS 3.60e6.
fus #1 gave mean viability with MMS 3.52e6.
For fus #2 the deposit lists mean viability with MMS 3.57e6.
With knock-down of Idh3g, the record shows mean viability with MMS 3.66e6.
Against bard, the entry reads mean viability with MMS 3.56e6.
Vps51 gave mean viability with MMS 3.53e6.
Knock-down of CG9168 gave: mean viability with MMS 3.56e6.
With knock-down of CG8112, the screen gave mean viability with MMS 3.78e6.
Silencing of CG15029 (retired record) came out at: mean viability with MMS 3.41e6.
Knock-down of CG4968 resulted in: mean viability with MMS 3.67e6.
For PQBP1 the deposit lists mean viability with MMS 3.45e6.
Against side-III #1 the deposit lists mean viability with MMS 3.50e6.
Silencing of side-III #2 resulted in: mean viability with MMS 3.03e6.
Knock-down of side-III #3 resulted in: mean viability with MMS 3.68e6.
For Pdhb the deposit lists mean viability with MMS 3.44e6.
With knock-down of put, the screen gave mean viability with MMS 3.50e6.
